According to PMC10818623, “Assessing Trans-Inhibition of OATP1B1 and OATP1B3 by Calcineurin and/or PPIase Inhibitors and Global Identification of OATP1B1/3-Associated Proteins” (Pharmaceutics, 2023):
No constants are given. Whether binding was seen depends on the method and setting. In cells and extracts the contact can be indirect. A yes stands for co-enrichment or nearness to the bait. Other partners may have been found. For some of these results: No binding means not detected with the bait. Where a sequence is shown, tags or fusion partners need not be part of it.

T1: FLAG-tagged OATP1B3 (organic anion transporting polypeptide 1B3) (UniProt Q9NPD5)
T1 sequence: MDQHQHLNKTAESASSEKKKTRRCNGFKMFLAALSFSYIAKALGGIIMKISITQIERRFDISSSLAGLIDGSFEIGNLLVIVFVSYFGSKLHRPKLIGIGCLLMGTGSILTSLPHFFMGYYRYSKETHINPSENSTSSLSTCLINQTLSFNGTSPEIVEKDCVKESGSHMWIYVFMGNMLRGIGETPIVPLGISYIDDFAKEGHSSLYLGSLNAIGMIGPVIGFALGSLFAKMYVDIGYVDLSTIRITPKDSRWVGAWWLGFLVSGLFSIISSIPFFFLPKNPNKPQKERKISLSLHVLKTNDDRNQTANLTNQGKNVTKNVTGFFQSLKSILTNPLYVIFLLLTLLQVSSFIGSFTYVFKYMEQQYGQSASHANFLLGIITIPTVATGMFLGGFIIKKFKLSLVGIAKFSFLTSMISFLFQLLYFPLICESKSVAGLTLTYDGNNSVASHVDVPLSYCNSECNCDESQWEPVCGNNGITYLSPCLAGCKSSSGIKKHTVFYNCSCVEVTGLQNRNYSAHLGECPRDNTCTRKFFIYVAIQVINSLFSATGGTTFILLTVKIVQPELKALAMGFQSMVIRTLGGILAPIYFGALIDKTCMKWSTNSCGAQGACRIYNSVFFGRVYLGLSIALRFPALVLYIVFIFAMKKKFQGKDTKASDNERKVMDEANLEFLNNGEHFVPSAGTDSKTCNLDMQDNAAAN

T2: FLAG-tagged OATP1B1 (organic anion transporting polypeptide 1B1) (UniProt Q9Y6L6)
T2 sequence: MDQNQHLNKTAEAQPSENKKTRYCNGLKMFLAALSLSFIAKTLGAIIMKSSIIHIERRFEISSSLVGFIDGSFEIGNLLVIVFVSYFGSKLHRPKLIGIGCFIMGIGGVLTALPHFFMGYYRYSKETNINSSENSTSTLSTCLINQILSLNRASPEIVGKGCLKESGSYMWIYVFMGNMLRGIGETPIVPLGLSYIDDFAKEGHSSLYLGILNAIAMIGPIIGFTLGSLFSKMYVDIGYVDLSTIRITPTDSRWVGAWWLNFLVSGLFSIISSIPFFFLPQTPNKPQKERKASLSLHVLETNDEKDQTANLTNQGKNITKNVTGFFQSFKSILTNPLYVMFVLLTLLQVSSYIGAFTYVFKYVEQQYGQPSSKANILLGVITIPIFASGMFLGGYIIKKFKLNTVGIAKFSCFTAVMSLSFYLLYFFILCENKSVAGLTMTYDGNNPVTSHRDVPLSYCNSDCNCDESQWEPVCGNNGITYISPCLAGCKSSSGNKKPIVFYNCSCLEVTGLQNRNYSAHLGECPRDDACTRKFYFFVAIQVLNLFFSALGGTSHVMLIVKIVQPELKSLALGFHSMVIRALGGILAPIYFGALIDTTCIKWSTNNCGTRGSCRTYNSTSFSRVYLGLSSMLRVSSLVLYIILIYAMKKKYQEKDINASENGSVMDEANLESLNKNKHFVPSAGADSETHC


Key:
[1] = target: T1, FLAG-tagged OATP1B3 (organic anion transporting polypeptide 1B3); experiment: affinity purification with mass spectrometry; FLAG-IP (M2 resin, overnight, 4 °C) from whole cell lysates of HEK293-FLAG-OATP1B1, HEK293-FLAG-OATP1B3 and HEK293-Mock cells; lysis buffer 50 mM Tris-HCl pH 7.4, 150 mM NaCl, 1 mM EDTA, 1% Triton X-100; seven washes; elution in SDS sample buffer at 60 °C; LC-MS/MS; N = 1; no drug treatment
[2] = target: T2, FLAG-tagged OATP1B1 (organic anion transporting polypeptide 1B1); experiment: as above

Row | binding [1] | binding [2] | Binder
1 | binds | binds | TGF-beta receptor type-1 (receptor, UniProt P36897 34-503) LQCFCHLCTKDNFTCVTDGLCFVSVTETTDKVIHNSMCIAEIDLIPRDRPFVCAPSSKTGSVTTTYCCNQDHCNKIELPTTVKSSPGLGPVELAAVIAGPVCFVCISLMLMVYICHNRTVIHHRVPNEEDPSLDRPFISEGTTLKDLIYDMTTSGSGSGLPLLVQRTIARTIVLQESIGKGRFGEVWRGKWRGEEVAVKIFSSREERSWFREAEIYQTVMLRHENILGFIAADNKDNGTWTQLWLVSDYHEHGSLFDYLNRYTVTVEGMIKLALSTASGLAHLHMEIVGTQGKPAIAHRDLKSKNILVKKNGTCCIADLGLAVRHDSATDTIDIAPNHRVGTKRYMAPEVLDDSINMKHFESFKRADIYAMGLVFWEIARRCSIGGIHEDYQLPYYDLVPSDPSVEEMRKVVCEQKLRPNIPNRWQSCEALRVMAKIMRECWYANGAARLTALRIKKTLSQLSQQEGIKM
2 | no binding | binds | Dual specificity mitogen-activated protein kinase kinase 3 (enzyme, UniProt P46734 1-347) MESPASSQPASMPQSKGKSKRKKDLRISCMSKPPAPNPTPPRNLDSRTFITIGDRNFEVEADDLVTISELGRGAYGVVEKVRHAQSGTIMAVKRIRATVNSQEQKRLLMDLDINMRTVDCFYTVTFYGALFREGDVWICMELMDTSLDKFYRKVLDKNMTIPEDILGEIAVSIVRALEHLHSKLSVIHRDVKPSNVLINKEGHVKMCDFGISGYLVDSVAKTMDAGCKPYMAPERINPELNQKGYNVKSDVWSLGITMIEMAILRFPYESWGTPFQQLKQVVEEPSPQLPADRFSPEFVDFTAQCLRKNPAERMSYLELMEHPFFTLHKTKKTDIAAFVKEILGEDS
